These results are taken from publication PMC8900822 (Acta Crystallographica. Section D, Structural Biology, 2022).

What is called pKi is −log10 of the Ki, conventionally taken in molar units. High values mean a low Ki, low ones a high Ki.

The assay deals with T1, SmCA (Schistosoma mansoni, UniProt A0A4Y5UX87, S271R).
T1 sequence (A0A4Y5UX87 21-298 S271R): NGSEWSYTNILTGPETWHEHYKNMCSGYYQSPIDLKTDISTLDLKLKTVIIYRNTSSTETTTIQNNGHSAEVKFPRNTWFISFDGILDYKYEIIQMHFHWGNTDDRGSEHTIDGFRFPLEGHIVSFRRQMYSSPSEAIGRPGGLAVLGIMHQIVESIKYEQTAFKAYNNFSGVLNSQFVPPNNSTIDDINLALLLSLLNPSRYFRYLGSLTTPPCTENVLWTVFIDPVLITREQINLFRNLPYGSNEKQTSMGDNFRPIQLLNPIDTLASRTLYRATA
The assay is described as follows: biochemical.

SMILES strings stand for the structures. pKi: −log10 of the molar value.

Compound `CC(=O)Nc1nnc(S(N)(=O)=O)s1` [AAZ, acetazolamide] showed a pKi of 7.37.
